These results are taken from paper PMC6560085.

Amino acid sequences for entries named in this document (tags omitted).
UniProt P06748: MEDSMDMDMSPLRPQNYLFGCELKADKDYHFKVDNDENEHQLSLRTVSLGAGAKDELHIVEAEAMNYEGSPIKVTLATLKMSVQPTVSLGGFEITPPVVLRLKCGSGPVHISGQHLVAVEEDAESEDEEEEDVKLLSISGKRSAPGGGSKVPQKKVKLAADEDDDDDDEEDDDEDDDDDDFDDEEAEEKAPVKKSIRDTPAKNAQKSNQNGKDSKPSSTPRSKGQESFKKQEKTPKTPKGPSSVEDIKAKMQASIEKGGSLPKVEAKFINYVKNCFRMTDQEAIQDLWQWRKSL
UniProt P09874: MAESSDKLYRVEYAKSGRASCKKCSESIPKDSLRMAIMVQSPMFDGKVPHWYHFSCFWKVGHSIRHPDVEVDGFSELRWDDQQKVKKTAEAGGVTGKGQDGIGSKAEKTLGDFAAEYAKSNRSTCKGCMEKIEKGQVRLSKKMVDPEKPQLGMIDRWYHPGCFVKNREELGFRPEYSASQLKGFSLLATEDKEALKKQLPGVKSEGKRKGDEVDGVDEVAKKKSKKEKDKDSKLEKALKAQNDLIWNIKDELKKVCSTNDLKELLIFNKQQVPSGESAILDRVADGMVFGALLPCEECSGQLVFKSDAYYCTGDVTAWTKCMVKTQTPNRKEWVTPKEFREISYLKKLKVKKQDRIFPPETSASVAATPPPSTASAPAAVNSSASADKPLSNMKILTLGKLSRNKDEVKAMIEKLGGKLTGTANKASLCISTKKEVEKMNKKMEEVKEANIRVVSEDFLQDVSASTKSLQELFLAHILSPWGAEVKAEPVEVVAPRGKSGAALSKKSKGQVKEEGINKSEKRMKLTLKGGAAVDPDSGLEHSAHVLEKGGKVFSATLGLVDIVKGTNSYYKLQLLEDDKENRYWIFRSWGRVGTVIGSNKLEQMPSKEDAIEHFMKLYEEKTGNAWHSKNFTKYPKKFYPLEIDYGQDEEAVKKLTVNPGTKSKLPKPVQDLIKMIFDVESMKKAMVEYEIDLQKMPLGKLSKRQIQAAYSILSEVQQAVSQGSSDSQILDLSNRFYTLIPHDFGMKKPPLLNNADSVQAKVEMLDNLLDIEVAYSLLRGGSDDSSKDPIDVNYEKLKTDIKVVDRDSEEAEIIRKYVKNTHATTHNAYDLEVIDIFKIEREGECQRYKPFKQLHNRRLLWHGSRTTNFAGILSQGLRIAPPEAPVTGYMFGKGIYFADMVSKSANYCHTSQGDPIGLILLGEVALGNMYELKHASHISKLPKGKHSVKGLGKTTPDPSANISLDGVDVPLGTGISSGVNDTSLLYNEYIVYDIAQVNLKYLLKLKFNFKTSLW
UniProt P26599: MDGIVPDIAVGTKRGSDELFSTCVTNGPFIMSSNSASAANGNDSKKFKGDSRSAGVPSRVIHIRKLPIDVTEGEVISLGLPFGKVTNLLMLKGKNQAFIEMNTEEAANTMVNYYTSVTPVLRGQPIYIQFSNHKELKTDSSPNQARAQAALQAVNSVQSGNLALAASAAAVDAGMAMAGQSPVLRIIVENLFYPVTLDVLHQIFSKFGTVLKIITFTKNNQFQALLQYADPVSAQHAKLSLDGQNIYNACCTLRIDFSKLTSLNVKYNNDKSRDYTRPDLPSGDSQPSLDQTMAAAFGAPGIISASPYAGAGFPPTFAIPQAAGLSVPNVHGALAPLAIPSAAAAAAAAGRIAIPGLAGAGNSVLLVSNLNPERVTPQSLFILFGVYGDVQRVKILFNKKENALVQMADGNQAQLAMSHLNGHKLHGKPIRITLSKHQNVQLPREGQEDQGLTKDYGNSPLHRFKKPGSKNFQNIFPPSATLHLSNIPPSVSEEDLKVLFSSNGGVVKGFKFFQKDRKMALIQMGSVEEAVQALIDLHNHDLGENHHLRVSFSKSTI

Results are given in words; binding and its absence hold for the method and conditions named. Binding seen in cells or lysates may run through a third protein. Here binding means that the protein was enriched with, or labelled near, the bait; the list need not be complete.

This experiment deals with endogenous TARDBP (human (endogenous in T23)) (UniProt Q13148). The experiment in a line: affinity purification with mass spectrometry; nuclear lysate of T23 cells (high salt extraction, RIPA added); 2.2 mg nuclear proteins co-immunoprecipitated with anti-TARDBP antibody (Dynabeads Co-Immunoprecipitation Kit); LC-MS/MS.

Turning to HNRNPK (from UniProt P61978 1-463), the binding entry was “binds”. The result for NPM1 (from UniProt P06748 1-294) reads “binds”; that for PARP1 (from UniProt P09874 1-1014), “binds”. In the case of PTBP1 (from UniProt P26599 1-557), the binding entry was “binds”.
